For at least one entry, the source does not settle the construct or the ends of the probe.

For the data set, the system named is PDGF. Put plainly: binding assay. The following applies: 2.5 uM switch, 1 uM PDGF, folded or branched DNA.

Turning to “CTTTTTATCGCCCGGGCACTGCAAGCAATTGCAGTCCCAATGGGCGGGCGATAAAAAGATCGATTCCCATCGATCTTTTTATCGCCC / GGGCGATAAAAAGATCGAT [PDGF switch with biotin linker complexed to streptavidin]”, the binding result (capillary electrophoresis, 2.5 uM linker-streptavidin, larger shifted peak than without linker, no distinct shifted peak without PDGF, label: fluorescein (switch), biotin (linker), variant of PDGF-responsive DNA switch) is “binds”.
Regarding “CTTTTTATCGCCCGGGCACTGCAAGCAATTGCAGTCCCAATGGGCGGGCGATAAAAAGATCGATTCCCATCGATCTTTTTATCGCCC [PDGF-responsive DNA switch]”, the binding result (capillary electrophoresis mobility shift, room temperature, label: fluorescein) is listed as “binds”.

For the origin of these results see patent US20090082217.
